Test [1] deals with myc-tagged-SUMO-2/3 (human) (UniProt P55854). The experiment in a line: condition: only cells treated with glycyrrhizic acid; co-IP; as a1, but cells treated with glycyrrhizic acid.
Test [2] shares this target. The experiment in a line: co-IP; native immunoprecipitation of myc-SUMO from lysates (RIPA buffer) of HEK 293 cells transfected with SAE1/2, Ubc9, SENP2 and myc-SUMO-1 or myc-SUMO-3; cells treated with the vehicle control; 1 ug antibody overnight at 4°C, magnetic Protein G beads; Western blot.
Test [3] has as its target myc-tagged-SUMO-1 (human) (UniProt P63165). The experiment in a line: co-IP.
The target is the same in test [4]. Description: condition: only cells treated with glycyrrhizic acid; co-IP; as a1, but cells treated with glycyrrhizic acid.
The target is the same in test [5]. Description: co-IP; as a1, but cells treated with ginkgolic acid.

Amino acid sequences for entries named in this document (tags omitted). Residues count along the entry.
UniProt P55854, residues 1-92: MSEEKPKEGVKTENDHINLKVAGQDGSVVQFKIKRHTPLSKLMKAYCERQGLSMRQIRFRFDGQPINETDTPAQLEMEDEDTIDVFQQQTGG
UniProt P63165, residues 1-97: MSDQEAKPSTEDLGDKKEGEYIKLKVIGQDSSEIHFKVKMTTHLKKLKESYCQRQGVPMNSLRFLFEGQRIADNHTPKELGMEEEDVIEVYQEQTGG
UniProt P63279: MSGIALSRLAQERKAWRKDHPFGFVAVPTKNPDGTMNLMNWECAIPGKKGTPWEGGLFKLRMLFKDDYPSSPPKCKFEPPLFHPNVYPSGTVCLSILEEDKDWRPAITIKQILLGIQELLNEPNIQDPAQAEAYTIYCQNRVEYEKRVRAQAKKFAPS

Results are given in words; binding and its absence hold for the method and conditions named. In cells and extracts the contact can be indirect. Some binding calls cover weakened binding; strength is not graded here.

Take “SUMO-conjugating enzyme (Ubc9) (from UniProt P63279 1-158)”: the binding result is listed as “no binding” in test [1] and “binds” in test [2].

B1: SUMO-protease (SENP2) (enzyme, UniProt Q9HC62 1-589)
chain: MYRWLVRILGTIFRFCDRSVPPARALLKRRRSDSTLFSTVDTDEIPAKRPRLDCFIHQVKNSLYNAASLFGFPFQLTTKPMVTSACNGTRNVAPSGEVFSNSSSCELTGSGSWNNMLKLGNKSPNGISDYPKIRVTVTRDQPRRVLPSFGFTLNSEGCNRRPGGRRHSKGNPESSLMWKPQEQAVTEMISEESGKGLRRPHCTVEEGVQKEEREKYRKLLERLKESGHGNSVCPVTSNYHSSQRSQMDTLKTKGWGEEQNHGVKTTQFVPKQYRLVETRGPLCSLRSEKRCSKGKITDTETMVGIRFENESRRGYQLEPDLSEEVSARLRLGSGSNGLLRRKVSIIETKEKNCSGKERDRRTDDLLELTEDMEKEISNALGHGPQDEILSSAFKLRITRGDIQTLKNYHWLNDEVINFYMNLLVERNKKQGYPALHVFSTFFYPKLKSGGYQAVKRWTKGVNLFEQEIILVPIHRKVHWSLVVIDLRKKCLKYLDSMGQKGHRICEILLQYLQDESKTKRNSDLNLLEWTHHSMKPHEIPQQLNGSDCGMFTCKYADYISRDKPITFTQHQMPLFRKKMVWEILHQQLL
As to B1, the binding result in test [3] was “binds”; in test [4], “no binding”; in test [1] it was “no binding”; in test [5], “no binding (condition: cells treated with ginkgolic acid)”; in test [2], “binds”.

These data come from article PMC6534330.
